Laboratory results: patent US20210380680A1 (ZLLP, published 2021)
Where a chain is given by its changes, count along the chain named. Numbers in names are those of the source. No constants are given. Whether binding was seen depends on the method and setting. Some entries that bind do so weakly or less than the wild type.

Amino acid sequences for entries named in this document (tags omitted). A change or cut given only in a name is not applied to a line headed by its entry. Chains listed by the source or under a name are the forms on record and can include a tag or linker.
CLDN18.2 endogenously expressed on SNU620 gastric cancer cells (P56856-2, form named): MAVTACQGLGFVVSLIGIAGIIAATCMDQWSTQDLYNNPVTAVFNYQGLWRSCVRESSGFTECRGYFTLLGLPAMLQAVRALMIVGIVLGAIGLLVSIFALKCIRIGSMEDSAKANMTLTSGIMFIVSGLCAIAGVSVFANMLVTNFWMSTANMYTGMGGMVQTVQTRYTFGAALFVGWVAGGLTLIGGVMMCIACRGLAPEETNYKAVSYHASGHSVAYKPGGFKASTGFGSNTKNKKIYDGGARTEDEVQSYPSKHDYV

B1: 364D1A7 (mouse hybridoma antibody) (antibody, V domains shown)
VH: DVQLVESGGGLVQPGGSRKLSCAASGFTFSSFGMHWVRQAPEKGLEWVAYISSGSGSIYYADTVKGRFTLSRDNPKNTLFLQMTSLRSEDTAIYYCATSYYYGNALEYWGQGTSVTVSS
VL: DVVLTQSPSSLTVTEGEKVSMSCKSSQSLFNSGNQKNYLTWYQQKPGQTPTLLIYWASTRKSGVPDRFTGSGSGTDFTLTINTVQAEDLAVYYCQNVYSYPLTFGAGTKLDLK
notes: purified mouse IgG from hybridoma
B2: 413H9F8 (mouse hybridoma antibody) (antibody, V domains shown)
VH: DVQLVESGGGSVQPGGSRRLSCAASGFTFSSFGMHWVRQAPEKGLEWVAYISSGSSPIYYVDKLKGRFTVSRDNPKNTLFLQMTSLRSEDTAMYYCARAGYAVRNALDYWGQGTSITVSS
VL: DIVMTQSPSSLSVSVGEKVTLSCKSSQSLLNSGNQKNYLAWYQQKTGQPPKLLIYGASTRESGVPDRFIGSGSGTDFTLTISSVQAEDLAVYFCQNDLFYPLTFGAGTKLELK
notes: as for B1
B3: 282A12F3 (rat hybridoma antibody) (antibody, V domains shown)
VH: QVQLKESGPVLVQPSQTLSLTCTVAGFSLTSYNVYWVRQPPGKGLEWMGVIWNTGATRYNSTLKSRLSISKDTSKSQVFLKMNSLQTEDTATYYCARDSAMPAIPFAYWGQGTLVTVSS
VL: DIVMTQSPSSLAVSAGETVTINCKSSQSLFGSVRQKNYLAWYQQKPGQSPKLLIYLASTRESGVPDRFIGSGSGTDFTLTISSVQAEDLAKYYCQQYYDIPWTFGGGTKLELK
notes: purified rat IgG from hybridoma
B4: hz282-19 (antibody, V domains shown)
VH: QVQLQESGPGLVKPSETLSLTCTVSGFSLTSYNVYWIRQPPGKGLEWIGVIWNTGATRYNSALKSRVTISKDTSKSQVSLKLSSVTAADTAVYYCARDSAMPAIPFAYWGQGTLVTVSS
VL: DIVMTQSPSSLSASVGDRVTINCKSSQSLFGSVRQKNYLAWYQQKPGKSPKLLIYLASTRESGVPDRFSGSGSGTDFTLTISSLQPEDFAKYYCQQYYDIPWTFGGGTKVEIK
notes: humanized IgG; constant regions not specified
B5: hz282-3 (antibody, V domains shown)
VH: B4 VH
VL: DIVMTQSPDSLAVSLGERATINCKSSQSLFGSVRQKNYLAWYQQKPGQPPKLLIYLASTRESGVPDRFSGSGSGTDFTLTISSLQAEDVAVYYCQQYYDIPWTFGGGTKVEIK
notes: as for B4
B6: hz282-4 (antibody, V domains shown)
VH: B4 VH with S25A
VL: B5 VL
notes: as for B4
B7: hz282-8 (antibody, V domains shown)
VH: B4 VH with S25A
VL: B5 VL with P49S, V91K
notes: as for B4
B8: hz282-10 (antibody, V domains shown)
VH: B4 VH with S76N
VL: B4 VL with V3Q, N22T, S49A, D66S, K91T
notes: as for B4
B9: hz282-12 (antibody, V domains shown)
VH: B4 VH with S25A
VL: B4 VL with V3Q, N22T, S49A, D66S, K91T
notes: as for B4
B10: hz282-15 (antibody, V domains shown)
VH: B4 VH
VL: B4 VL with V3Q, N22T
notes: as for B4
B11: 413H9F8-VL-S32L (antibody, human IgG1, kappa, V domains shown)
VH: B2 VH
VL: DIVMTQSPSSLSVSVGEKVTLSCKSSQSLLNLGNQKNYLAWYQQKTGQPPKLLIYGASTRESGVPDRFIGSGSGTDFTLTISSVQAEDLAVYFCQNDLFYPLTFGAGTKLELKR
B12: 413H9F8-VL-N31E (antibody, human IgG1, kappa, V domains shown)
VH: B2 VH
VL: B11 VL with N31E, L32S
notes: chimeric human IgG1, PTM site removed
B13: 413H9F8-VL-S32V (antibody, human IgG1, kappa, V domains shown)
VH: B2 VH
VL: B11 VL with L32V
notes: chimeric human IgG1, PTM site removed; also called 413H9F8-VL-32V; 413H9F8-VL-532V
B14: 364D1A7-VL-S32L (antibody, human IgG1, kappa, V domains shown)
VH: B1 VH
VL: DVVLTQSPSSLTVTEGEKVSMSCKSSQSLFNLGNQKNYLTWYQQKPGQTPTLLIYWASTRKSGVPDRFTGSGSGTDFTLTINTVQAEDLAVYYCQNVYSYPLTFGAGTKLDLKR
B15: 364D1A7-VL-N31E (antibody, human IgG1, kappa, V domains shown)
VH: B1 VH
VL: B14 VL with N31E, L32S
notes: as for B12
B16: 364D1A7-VL-S32V (antibody, human IgG1, kappa, V domains shown)
VH: B1 VH
VL: B14 VL with L32V
notes: chimeric human IgG1, PTM site removed; also called 364D1A7-VL-32V

Biological target: CLDN18.2 endogenously expressed on SNU620 gastric cancer cells (UniProt P56856)
Experiment: FACS

Row | Binder | binding
1 | B1 | binds
2 | B2 | binds
3 | B3 | binds

Biological target: human Claudin 18.2 (CLDN18.2) (human, UniProt P56856-2 1-261)
Experiment: FACS on CHO-CLDN18.2 cells

Row | Binder | binding
4 | B4 | binds

Biological target: human Claudin 18.2 (CLDN18.2) (human) (UniProt P56856)
Experiment: FACS on CHO-CLDN18.2 cells

Row | Binder | binding
5 | B5 | binds
6 | B6 | binds
7 | B7 | binds
8 | B8 | binds
9 | B9 | binds
10 | B10 | binds

Biological target: CLDN18.2 endogenously expressed on SNU620 gastric cancer cells (UniProt P56856)
Experiment: FACS on SNU620 cells @10 ug/ml

Row | Binder | binding
11 | B1 | binds
12 | B2 | binds
13 | B3 | binds

Biological target: CLDN18.2 endogenously expressed on SNU620 gastric cancer cells (UniProt P56856)
Experiment: FACS on SNU620 cells, 10 ug/mL

Row | Binder | binding
14 | B1 | binds
15 | B2 | binds

Biological target: CLDN18.2 endogenously expressed on SNU620 gastric cancer cells (UniProt P56856)
Experiment: FACS on SNU620 cells

Row | Binder | binding
16 | B11 | binds
17 | B12 | binds
18 | B13 | binds
19 | B14 | binds
20 | B15 | binds
21 | B16 | binds
22 | B3 | binds
